1 substance from paper doi:10.1101/2025.10.14.682307 can be followed below.

Amino acid sequences for entries named in this document (tags omitted).
UniProt Q15022: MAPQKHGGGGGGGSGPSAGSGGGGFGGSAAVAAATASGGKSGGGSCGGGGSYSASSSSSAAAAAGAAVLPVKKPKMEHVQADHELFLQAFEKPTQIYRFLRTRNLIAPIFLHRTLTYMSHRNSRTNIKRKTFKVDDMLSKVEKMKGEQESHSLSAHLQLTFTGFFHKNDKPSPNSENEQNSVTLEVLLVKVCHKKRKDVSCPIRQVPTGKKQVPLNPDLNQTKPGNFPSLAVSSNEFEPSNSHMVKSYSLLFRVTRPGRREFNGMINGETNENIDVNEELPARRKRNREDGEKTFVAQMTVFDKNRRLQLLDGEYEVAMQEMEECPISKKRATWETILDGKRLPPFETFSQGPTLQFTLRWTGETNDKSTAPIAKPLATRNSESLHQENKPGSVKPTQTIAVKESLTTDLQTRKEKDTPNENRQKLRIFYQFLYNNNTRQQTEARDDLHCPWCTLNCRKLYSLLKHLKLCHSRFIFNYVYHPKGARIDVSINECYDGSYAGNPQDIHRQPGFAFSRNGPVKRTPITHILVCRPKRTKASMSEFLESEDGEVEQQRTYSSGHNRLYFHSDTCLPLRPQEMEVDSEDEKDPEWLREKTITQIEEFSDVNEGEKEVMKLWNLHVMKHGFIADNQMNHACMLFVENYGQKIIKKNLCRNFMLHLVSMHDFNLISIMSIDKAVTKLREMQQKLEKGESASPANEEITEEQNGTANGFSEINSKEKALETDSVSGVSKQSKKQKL
UniProt Q9Y483: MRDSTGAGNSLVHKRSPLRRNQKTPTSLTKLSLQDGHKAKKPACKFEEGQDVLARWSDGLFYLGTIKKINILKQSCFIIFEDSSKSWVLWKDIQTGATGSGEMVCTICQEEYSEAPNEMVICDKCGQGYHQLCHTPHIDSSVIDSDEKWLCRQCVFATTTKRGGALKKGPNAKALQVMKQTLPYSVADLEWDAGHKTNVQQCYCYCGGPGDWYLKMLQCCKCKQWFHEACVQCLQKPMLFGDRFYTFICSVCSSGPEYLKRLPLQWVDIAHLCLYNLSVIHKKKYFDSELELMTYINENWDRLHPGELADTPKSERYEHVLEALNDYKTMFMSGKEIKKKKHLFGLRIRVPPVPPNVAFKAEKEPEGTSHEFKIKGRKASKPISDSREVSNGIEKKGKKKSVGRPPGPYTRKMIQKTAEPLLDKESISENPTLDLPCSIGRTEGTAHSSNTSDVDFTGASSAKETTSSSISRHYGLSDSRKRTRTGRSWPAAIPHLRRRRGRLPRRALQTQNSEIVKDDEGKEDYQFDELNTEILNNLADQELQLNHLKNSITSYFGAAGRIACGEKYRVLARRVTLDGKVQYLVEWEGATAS

Results are given in words; binding and its absence hold for the method and conditions named. In cells and extracts the contact can be indirect. Here binding means that the protein was enriched with, or labelled near, the bait; the list need not be complete.

In this test the target is SUZ12 (human (endogenous in WSU-DLCL2)) (UniProt Q15022). Briefly: affinity purification with mass spectrometry.

With MTF2 (from UniProt Q9Y483 1-593), the binding result was “binds”.
